# The list shows a part of the results.
# B1: TAL6-4LysM (Trichoderma atroviride) (protein)
# chain: AADSIPSISPTGIITPTPTQSGMVSNCNKFYDVHSNDGCSAIASSQHVDLSSLYKWNPAIKTDCSGLQASVYVCIGILTTSMSTTSKLPTTTSKPSTTSKPPTGITTPTPTQSGMVKNCNKFYDVHSGDGCSAIASSQKVNLSSFYLWNPAVKTDCSGLQASVFVCIGTLTTSMSTTTSKLPTTTSKPSTTSKPPTGIITPTPTQNGMVKNCNKFYDVHSGDGCSAIASSQKVNLSSFYLWNPAVKTDCSGLQASVFVCVGTATTTTAAGITTPTPTQSGMVSGCNKFYDVHAGDGCSAIASSQKIALSSLYKWNPAVKTDCSGLQASVYICIGVGNAAAARVTGALEQKLISEEDLNSAVDHHHHHH
# Tests used:
# Assay in all cases: glycan array binding signal (z-score within array); higher = stronger binding
# Conditions in all cases: glycan notation: IUPAC condensed, linker removed
# Fuc(a1-2)Gal = molecular target: Fuc(a1-2)Gal
# Summary of the method: (§1)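 Columns mapping to the same glycan were averaged after glycan names were converted to IUPAC-condensed notation. The data come from 3228 arrays in the Consortium for Functional Glycomics database, limited to those with an available protein sequence. Binding is reported as a within-array Z-score averaged across arrays of one protein sequence and across linkers.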
# Fuc(a1-2)Gal(b1-3)GalNAc = molecular target: Fuc(a1-2)Gal(b1-3)GalNAc
# Summary of the method: as §1
# [1] = molecular target: Fuc(a1-2)Gal(b1-3)GalNAc(a1-3)[Fuc(a1-2)]Gal(b1-4)Glc
# Summary of the method: as §1
# [2] = molecular target: Fuc(a1-2)Gal(b1-3)GalNAc(a1-3)[Fuc(a1-2)]Gal(b1-4)GlcNAc
# Summary of the method: as §1
# [3] = molecular target: Fuc(a1-2)Gal(b1-3)GalNAc(b1-3)Gal
# Summary of the method: as §1
# [4] = molecular target: Fuc(a1-2)Gal(b1-3)GalNAc(b1-3)Gal(a1-4)Gal(b1-4)Glc
# Summary of the method: as §1
# [5] = molecular target: Fuc(a1-2)Gal(b1-3)GalNAc(b1-4)[Neu5Ac(a2-3)]Gal(b1-4)Glc
# Summary of the method: as §1
# Fuc(a1-2)Gal(b1-3)GlcNAc = molecular target: Fuc(a1-2)Gal(b1-3)GlcNAc
# Summary of the method: as §1
# [6] = molecular target: Fuc(a1-2)Gal(b1-3)GlcNAc(b1-2)Man(a1-3)[Fuc(a1-2)Gal(b1-3)GlcNAc(b1-2)Man(a1-6)]Man(b1-4)GlcNAc(b1-4)GlcNAc
# Summary of the method: as §1
# [7] = molecular target: Fuc(a1-2)Gal(b1-3)GlcNAc(b1-2)Man(a1-3)[Fuc(a1-2)Gal(b1-3)GlcNAc(b1-2)Man(a1-6)]Man(b1-4)GlcNAc(b1-4)[Fuc(a1-6)]GlcNAc
# Summary of the method: as §1
# [8] = molecular target: Fuc(a1-2)Gal(b1-3)GlcNAc(b1-3)Gal(b1-4)Glc
# Summary of the method: as §1
# [9] = molecular target: Fuc(a1-2)Gal(b1-3)GlcNAc(b1-3)GalNAc
# Summary of the method: as §1
# [10] = molecular target: Fuc(a1-2)Gal(b1-3)GlcNAc(b1-3)[Fuc(a1-2)Gal(b1-3)GlcNAc(b1-6)]GalNAc
# Summary of the method: as §1
# [11] = molecular target: Fuc(a1-2)Gal(b1-3)GlcNAc(b1-3)[Gal(b1-4)GlcNAc(b1-6)]Gal(b1-4)Glc
# Summary of the method: as §1
# [12] = molecular target: Fuc(a1-2)Gal(b1-3)GlcNAc(b1-3)[Neu5Ac(a2-6)Gal(b1-4)GlcNAc(b1-6)]Gal(b1-4)Glc
# Summary of the method: as §1
# [13] = molecular target: Fuc(a1-2)Gal(b1-3)GlcNAc6S
# Summary of the method: as §1
# [14] = molecular target: Fuc(a1-2)Gal(b1-3)[Fuc(a1-4)]GlcNAc
# Summary of the method: as §1
# [15] = molecular target: Fuc(a1-2)Gal(b1-3)[Fuc(a1-4)]GlcNAc(b1-2)Man(a1-3)[Fuc(a1-2)Gal(b1-3)[Fuc(a1-4)]GlcNAc(b1-2)Man(a1-3)]Man(b1-4)GlcNAc(b1-4)GlcNAc
# Summary of the method: as §1
# [16] = molecular target: Fuc(a1-2)Gal(b1-3)[Fuc(a1-4)]GlcNAc(b1-2)Man(a1-3)[Fuc(a1-2)Gal(b1-3)[Fuc(a1-4)]GlcNAc(b1-2)Man(a1-6)]Man(b1-4)GlcNAc(b1-4)[Fuc(a1-6)]GlcNAc(b1-4)[Fuc(a1-6)]GlcNAc
# Summary of the method: as §1
# [17] = molecular target: Fuc(a1-2)Gal(b1-3)[Fuc(a1-4)]GlcNAc(b1-3)[Fuc(a1-3)[Gal(b1-4)]GlcNAc(b1-6)]Gal(b1-4)Glc
# Summary of the method: as §1
# [18] = molecular target: Fuc(a1-2)Gal(b1-3)[Fuc(a1-4)]GlcNAc(b1-3)[Gal(b1-4)GlcNAc(b1-6)]Gal(b1-4)Glc
# Summary of the method: as §1
# Fuc(a1-2)Gal(b1-4)Glc = molecular target: Fuc(a1-2)Gal(b1-4)Glc
# Summary of the method: as §1
# Fuc(a1-2)Gal(b1-4)Glc6S = molecular target: Fuc(a1-2)Gal(b1-4)Glc6S
# Summary of the method: as §1
# Fuc(a1-2)Gal(b1-4)GlcNAc = molecular target: Fuc(a1-2)Gal(b1-4)GlcNAc
# Summary of the method: as §1
# [19] = molecular target: Fuc(a1-2)Gal(b1-4)GlcNAc(b1-2)Man
# Summary of the method: as §1
# [20] = molecular target: Fuc(a1-2)Gal(b1-4)GlcNAc(b1-2)Man(a1-3)[Fuc(a1-2)Gal(b1-4)GlcNAc(b1-2)Man(a1-6)]Man(b1-4)GlcNAc(b1-4)GlcNAc
# Summary of the method: as §1
# [21] = molecular target: Fuc(a1-2)Gal(b1-4)GlcNAc(b1-2)Man(a1-3)[Fuc(a1-2)Gal(b1-4)GlcNAc(b1-2)Man(a1-6)]Man(b1-4)GlcNAc(b1-4)[Fuc(a1-6)]GlcNAc
# Summary of the method: as §1
# [22] = molecular target: Fuc(a1-2)Gal(b1-4)GlcNAc(b1-2)[Fuc(a1-2)Gal(b1-4)GlcNAc(b1-4)]Man(a1-3)[Fuc(a1-2)Gal(b1-4)GlcNAc(b1-2)Man(a1-6)]Man(b1-4)GlcNAc(b1-4)GlcNAc
# Summary of the method: as §1
# [23] = molecular target: Fuc(a1-2)Gal(b1-4)GlcNAc(b1-3)Gal(b1-4)GlcNAc
# Summary of the method: as §1
# [24] = molecular target: Fuc(a1-2)Gal(b1-4)GlcNAc(b1-3)Gal(b1-4)GlcNAc(b1-2)Man(a1-3)[Fuc(a1-2)Gal(b1-4)GlcNAc(b1-3)Gal(b1-4)GlcNAc(b1-2)Man(a1-6)]Man(b1-4)GlcNAc(b1-4)GlcNAc
# Summary of the method: as §1
# [25] = molecular target: Fuc(a1-2)Gal(b1-4)GlcNAc(b1-3)Gal(b1-4)GlcNAc(b1-3)Gal(b1-4)GlcNAc
# Summary of the method: as §1
# [26] = molecular target: Fuc(a1-2)Gal(b1-4)GlcNAc(b1-3)GalNAc
# Summary of the method: as §1
# [27] = molecular target: Fuc(a1-2)Gal(b1-4)GlcNAc(b1-3)[Fuc(a1-2)Gal(b1-4)GlcNAc(b1-6)]GalNAc
# Summary of the method: as §1
# [28] = molecular target: Fuc(a1-2)Gal(b1-4)GlcNAc(b1-3)[Fuc(a1-3)[Gal(b1-4)]GlcNAc(b1-6)]Gal(b1-4)Glc
# Summary of the method: as §1
# [29] = molecular target: Fuc(a1-2)Gal(b1-4)GlcNAc(b1-6)GalNAc
# Summary of the method: as §1
# [30] = molecular target: Fuc(a1-2)Gal(b1-4)GlcNAc6S
# Summary of the method: as §1
# [31] = molecular target: Fuc(a1-2)Gal(b1-4)[Fuc(a1-3)]GlcNAc
# Summary of the method: as §1
binder,measurement,setting,value
B1,glycan array binding signal (z-score),Fuc(a1-2)Gal,0.293
same,glycan array binding signal (z-score),Fuc(a1-2)Gal(b1-3)GalNAc,-1.32
same,glycan array binding signal (z-score),[1],-0.861
same,glycan array binding signal (z-score),[2],-1.21
same,glycan array binding signal (z-score),[3],-0.335
same,glycan array binding signal (z-score),[4],-1.13
same,glycan array binding signal (z-score),[5],-0.07
same,glycan array binding signal (z-score),Fuc(a1-2)Gal(b1-3)GlcNAc,-0.262
same,glycan array binding signal (z-score),[6],-0.556
same,glycan array binding signal (z-score),[7],-1.31
same,glycan array binding signal (z-score),[8],-0.135
same,glycan array binding signal (z-score),[9],0.317
same,glycan array binding signal (z-score),[10],0.821
same,glycan array binding signal (z-score),[11],-1.08
same,glycan array binding signal (z-score),[12],-0.069
same,glycan array binding signal (z-score),[13],1.83
same,glycan array binding signal (z-score),[14],-0.67
same,glycan array binding signal (z-score),[15],0.691
same,glycan array binding signal (z-score),[16],0.277
same,glycan array binding signal (z-score),[17],-1.17
same,glycan array binding signal (z-score),[18],0.295
same,glycan array binding signal (z-score),Fuc(a1-2)Gal(b1-4)Glc,0.401
same,glycan array binding signal (z-score),Fuc(a1-2)Gal(b1-4)Glc6S,-1.12
same,glycan array binding signal (z-score),Fuc(a1-2)Gal(b1-4)GlcNAc,1.98
same,glycan array binding signal (z-score),[19],-0.525
same,glycan array binding signal (z-score),[20],-0.793
same,glycan array binding signal (z-score),[21],0.557
same,glycan array binding signal (z-score),[22],0.282
same,glycan array binding signal (z-score),[23],0.858
same,glycan array binding signal (z-score),[24],0.751
same,glycan array binding signal (z-score),[25],-0.327
same,glycan array binding signal (z-score),[26],-0.49
same,glycan array binding signal (z-score),[27],-0.02
same,glycan array binding signal (z-score),[28],0.207
same,glycan array binding signal (z-score),[29],-0.321
same,glycan array binding signal (z-score),[30],-0.315
same,glycan array binding signal (z-score),[31],-0.061

# An excerpt of these results, as tab-separated lines:
binder	measurement	setting	value
B1	glycan array binding signal (z-score)	[19]	-0.525
same	glycan array binding signal (z-score)	[20]	-0.793
